{"source": "the supplement of paper PMC8728848", "binders": {"B1": {"name": "Intelectin-1a (Mus musculus) (protein)", "chain": "AEWSHPQFEKAEENLDTNRWGNSFFSSLPRSCKEIKQEHTKAQDGLYFLRTKNGVIYQTFCDMTTAGGGWTLVASVHENNMRGKCTVGDRWSSQQGNRADYPEGDGNWANYNTFGSAEAATSDDYKNPGYFDIQAENLGIWHVPNKSPLHNWRKSSLLRYRTFTGFLQHLGHNLFGLYKKYPVKYGEGKCWTDNGPALPVVYDFGDARKTASYYSPSGQREFTAGYVQFRVFNNERAASALCAGVRVTGCNTEHHCIGGGGFFPEGNPVQCGDFASFDWDGYGTHNGYSSSRKITEAAVLLFYR"}}, "experiment_in_all_cases": "glycan array binding signal (z-score within array); higher = stronger binding", "conditions_in_all_cases": "glycan notation: IUPAC condensed, linker removed", "key": {"[1]": {"biological_target": "GlcNAc(b1-3)[GlcNAc(b1-6)]Gal(b1-4)GlcNAc", "summary_of_the_method": "(§1)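 The binding signal is a Z-score computed within each array and averaged over linkers. Arrays of the same protein sequence at different concentrations or buffers were also averaged together. Data originate from 3228 arrays in the Consortium for Functional Glycomics database, kept only where the protein sequence was available.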"}, "[2]": {"biological_target": "GlcNAc(b1-3)[GlcNAc(b1-6)]GalNAc", "summary_of_the_method": "as §1"}, "[3]": {"biological_target": "GlcNAc(b1-4)Gal(b1-4)GlcNAc", "summary_of_the_method": "as §1"}, "GlcNAc(b1-4)GlcNAc": {"biological_target": "GlcNAc(b1-4)GlcNAc", "summary_of_the_method": "as §1"}, "[4]": {"biological_target": "GlcNAc(b1-4)GlcNAc(b1-4)GlcNAc", "summary_of_the_method": "as §1"}, "[5]": {"biological_target": "GlcNAc(b1-4)GlcNAc(b1-4)GlcNAc(b1-4)GlcNAc(b1-4)GlcNAc", "summary_of_the_method": "as §1"}, "[6]": {"biological_target": "GlcNAc(b1-4)GlcNAc(b1-4)GlcNAc(b1-4)GlcNAc(b1-4)GlcNAc(b1-4)GlcNAc", "summary_of_the_method": "as §1"}, "[7]": {"biological_target": "GlcNAc(b1-4)[GlcNAc(b1-6)]GalNAc", "summary_of_the_method": "as §1"}, "[8]": {"biological_target": "GlcNAc(b1-6)Gal(b1-4)GlcNAc", "summary_of_the_method": "as §1"}, "GlcNAc(b1-6)GalNAc": {"biological_target": "GlcNAc(b1-6)GalNAc", "summary_of_the_method": "as §1"}, "GlcNAc3Prop(b1-4)GlcNAc": {"biological_target": "GlcNAc3Prop(b1-4)GlcNAc", "summary_of_the_method": "as §1"}, "[9]": {"biological_target": "GlcNAc6S(b1-3)Gal(b1-4)GlcNAc", "summary_of_the_method": "as §1"}, "Kdn(a2-3)Gal(b1-3)GalNAc": {"biological_target": "Kdn(a2-3)Gal(b1-3)GalNAc", "summary_of_the_method": "as §1"}, "Kdn(a2-3)Gal(b1-3)GlcNAc": {"biological_target": "Kdn(a2-3)Gal(b1-3)GlcNAc", "summary_of_the_method": "as §1"}, "Kdn(a2-3)Gal(b1-4)Glc": {"biological_target": "Kdn(a2-3)Gal(b1-4)Glc", "summary_of_the_method": "as §1"}, "Kdn(a2-3)Gal(b1-4)GlcNAc": {"biological_target": "Kdn(a2-3)Gal(b1-4)GlcNAc", "summary_of_the_method": "as §1"}, "[10]": {"biological_target": "Kdn(a2-3)Gal(b1-4)[Fuc(a1-3)]GlcNAc", "summary_of_the_method": "as §1"}, "Kdn(a2-6)Gal(b1-4)GlcNAc": {"biological_target": "Kdn(a2-6)Gal(b1-4)GlcNAc", "summary_of_the_method": "as §1"}, "[11]": {"biological_target": "Man(a1-2)Man(a1-2)Man(a1-3)Man", "summary_of_the_method": "as §1"}, "[12]": {"biological_target": "Man(a1-2)Man(a1-2)Man(a1-6)[Man(a1-3)]Man", "summary_of_the_method": "as §1"}, "Man(a1-2)Man(a1-3)Man": {"biological_target": "Man(a1-2)Man(a1-3)Man", "summary_of_the_method": "as §1"}, "[13]": {"biological_target": "Man(a1-2)Man(a1-3)[Man(a1-2)Man(a1-6)]Man", "summary_of_the_method": "as §1"}, "[14]": {"biological_target": "Man(a1-2)Man(a1-3)[Man(a1-2)Man(a1-6)]Man(a1-6)[Man(a1-2)Man(a1-2)Man(a1-3)]Man", "summary_of_the_method": "as §1"}, "[15]": {"biological_target": "Man(a1-2)Man(a1-3)[Man(a1-2)Man(a1-6)]Man(a1-6)[Man(a1-2)Man(a1-2)Man(a1-3)]Man(b1-4)GlcNAc(b1-4)GlcNAc", "summary_of_the_method": "as §1"}, "[16]": {"biological_target": "Man(a1-2)Man(a1-3)[Man(a1-6)]Man(a1-6)[Man(a1-2)Man(a1-3)]Man(b1-4)GlcNAc(b1-4)GlcNAc", "summary_of_the_method": "as §1"}, "[17]": {"biological_target": "Man(a1-2)Man(a1-6)[Man(a1-3)]Man(a1-6)[Man(a1-2)Man(a1-2)Man(a1-3)]Man", "summary_of_the_method": "as §1"}, "[18]": {"biological_target": "Man(a1-2)Man(a1-6)[Man(a1-3)]Man(a1-6)[Man(a1-2)Man(a1-2)Man(a1-3)]Man(b1-4)GlcNAc(b1-4)GlcNAc", "summary_of_the_method": "as §1"}, "Man(a1-3)[Man(a1-6)]Man": {"biological_target": "Man(a1-3)[Man(a1-6)]Man", "summary_of_the_method": "as §1"}, "[19]": {"biological_target": "Man(a1-3)[Man(a1-6)]Man(a1-6)[Man(a1-2)Man(a1-3)]Man(b1-4)GlcNAc(b1-4)GlcNAc", "summary_of_the_method": "as §1"}, "[20]": {"biological_target": "Man(a1-3)[Man(a1-6)]Man(a1-6)[Man(a1-3)]Man", "summary_of_the_method": "as §1"}, "[21]": {"biological_target": "Man(a1-3)[Man(a1-6)]Man(a1-6)[Man(a1-3)]Man(b1-4)GlcNAc(b1-4)GlcNAc", "summary_of_the_method": "as §1"}, "[22]": {"biological_target": "Man(a1-3)[Man(a1-6)]Man(b1-4)GlcNAc(b1-4)GlcNAc", "summary_of_the_method": "as §1"}, "[23]": {"biological_target": "Man(a1-3)[Man(a1-6)]Man(b1-4)GlcNAc(b1-4)[Fuc(a1-6)]GlcNAc", "summary_of_the_method": "as §1"}, "Man(a1-6)Man": {"biological_target": "Man(a1-6)Man", "summary_of_the_method": "as §1"}, "Man(b1-4)GlcNAc": {"biological_target": "Man(b1-4)GlcNAc", "summary_of_the_method": "as §1"}, "Neu5Ac(a2-3)Gal": {"biological_target": "Neu5Ac(a2-3)Gal", "summary_of_the_method": "as §1"}, "[24]": {"biological_target": "Neu5Ac(a2-3)Gal(b1-3)GalNAc", "summary_of_the_method": "as §1"}, "[25]": {"biological_target": "Neu5Ac(a2-3)Gal(b1-3)GalNAc(b1-3)Gal(a1-4)Gal(b1-4)Glc", "summary_of_the_method": "as §1"}}, "note": "Some of the results follow."}
{"binder": "B1", "values": [{"measurement": "glycan array binding signal (z-score)", "setting": "[1]", "result": -0.779}, {"measurement": "glycan array binding signal (z-score)", "setting": "[2]", "result": -1}, {"measurement": "glycan array binding signal (z-score)", "setting": "[3]", "result": -0.454}, {"measurement": "glycan array binding signal (z-score)", "setting": "GlcNAc(b1-4)GlcNAc", "result": 0.113}, {"measurement": "glycan array binding signal (z-score)", "setting": "[4]", "result": -1.03}, {"measurement": "glycan array binding signal (z-score)", "setting": "[5]", "result": -0.617}, {"measurement": "glycan array binding signal (z-score)", "setting": "[6]", "result": -0.826}, {"measurement": "glycan array binding signal (z-score)", "setting": "[7]", "result": 1.47}, {"measurement": "glycan array binding signal (z-score)", "setting": "[8]", "result": -0.534}, {"measurement": "glycan array binding signal (z-score)", "setting": "GlcNAc(b1-6)GalNAc", "result": -0.351}, {"measurement": "glycan array binding signal (z-score)", "setting": "GlcNAc3Prop(b1-4)GlcNAc", "result": -0.731}, {"measurement": "glycan array binding signal (z-score)", "setting": "[9]", "result": -0.273}, {"measurement": "glycan array binding signal (z-score)", "setting": "Kdn(a2-3)Gal(b1-3)GalNAc", "result": -1.01}, {"measurement": "glycan array binding signal (z-score)", "setting": "Kdn(a2-3)Gal(b1-3)GlcNAc", "result": -0.959}, {"measurement": "glycan array binding signal (z-score)", "setting": "Kdn(a2-3)Gal(b1-4)Glc", "result": 0.266}, {"measurement": "glycan array binding signal (z-score)", "setting": "Kdn(a2-3)Gal(b1-4)GlcNAc", "result": 0.581}, {"measurement": "glycan array binding signal (z-score)", "setting": "[10]", "result": -0.718}, {"measurement": "glycan array binding signal (z-score)", "setting": "Kdn(a2-6)Gal(b1-4)GlcNAc", "result": -1.2}, {"measurement": "glycan array binding signal (z-score)", "setting": "[11]", "result": -0.748}, {"measurement": "glycan array binding signal (z-score)", "setting": "[12]", "result": 1.86}, {"measurement": "glycan array binding signal (z-score)", "setting": "Man(a1-2)Man(a1-3)Man", "result": -0.431}, {"measurement": "glycan array binding signal (z-score)", "setting": "[13]", "result": -0.995}, {"measurement": "glycan array binding signal (z-score)", "setting": "[14]", "result": -0.621}, {"measurement": "glycan array binding signal (z-score)", "setting": "[15]", "result": 0.197}, {"measurement": "glycan array binding signal (z-score)", "setting": "[16]", "result": -0.451}, {"measurement": "glycan array binding signal (z-score)", "setting": "[17]", "result": 0.17}, {"measurement": "glycan array binding signal (z-score)", "setting": "[18]", "result": -1.13}, {"measurement": "glycan array binding signal (z-score)", "setting": "Man(a1-3)[Man(a1-6)]Man", "result": 0.005}, {"measurement": "glycan array binding signal (z-score)", "setting": "[19]", "result": -0.401}, {"measurement": "glycan array binding signal (z-score)", "setting": "[20]", "result": 2.38}, {"measurement": "glycan array binding signal (z-score)", "setting": "[21]", "result": -1.14}, {"measurement": "glycan array binding signal (z-score)", "setting": "[22]", "result": -1.59}, {"measurement": "glycan array binding signal (z-score)", "setting": "[23]", "result": -0.693}, {"measurement": "glycan array binding signal (z-score)", "setting": "Man(a1-6)Man", "result": -0.923}, {"measurement": "glycan array binding signal (z-score)", "setting": "Man(b1-4)GlcNAc", "result": -1.15}, {"measurement": "glycan array binding signal (z-score)", "setting": "Neu5Ac(a2-3)Gal", "result": 0.241}, {"measurement": "glycan array binding signal (z-score)", "setting": "[24]", "result": 1.73}, {"measurement": "glycan array binding signal (z-score)", "setting": "[25]", "result": -0.18}]}
